Article PMC11142717
These are yes or no findings as the source states them, for the method shown.

Target: VACV E9 with an uncleaved His-tag (isolated polymerase, construct of ref. 21) (vaccinia virus (VACV)) (UniProt P20509)
Test: BLI; both purified

wild-type VACV D4 (isolated) (from UniProt P20536 1-218) (enzyme)
binding: no binding
